Experimental findings from the supplement of paper PMC12067093, “Discovery and optimisation of a covalent ligand for TRIM25 and its application to targeted protein ubiquitination” (Chemical Science, 2025) are described below.

Amino acid sequences for entries named in this document (tags omitted). A change or cut given only in a name is not applied to a line headed by its entry.
UniProt Q12874: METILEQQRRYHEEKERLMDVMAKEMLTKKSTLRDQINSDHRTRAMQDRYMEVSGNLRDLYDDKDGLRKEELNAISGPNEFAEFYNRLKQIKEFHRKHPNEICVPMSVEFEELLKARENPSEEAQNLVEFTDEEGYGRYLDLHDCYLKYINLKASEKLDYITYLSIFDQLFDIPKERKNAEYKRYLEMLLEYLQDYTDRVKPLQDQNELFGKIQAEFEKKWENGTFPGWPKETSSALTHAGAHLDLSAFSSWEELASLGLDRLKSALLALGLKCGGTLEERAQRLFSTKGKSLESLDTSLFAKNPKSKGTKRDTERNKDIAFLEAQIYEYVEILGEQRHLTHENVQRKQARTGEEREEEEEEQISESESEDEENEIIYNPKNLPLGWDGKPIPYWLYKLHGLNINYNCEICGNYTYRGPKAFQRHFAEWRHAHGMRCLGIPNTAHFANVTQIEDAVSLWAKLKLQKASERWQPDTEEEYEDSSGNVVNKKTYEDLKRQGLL
UniProt Q9UHJ3: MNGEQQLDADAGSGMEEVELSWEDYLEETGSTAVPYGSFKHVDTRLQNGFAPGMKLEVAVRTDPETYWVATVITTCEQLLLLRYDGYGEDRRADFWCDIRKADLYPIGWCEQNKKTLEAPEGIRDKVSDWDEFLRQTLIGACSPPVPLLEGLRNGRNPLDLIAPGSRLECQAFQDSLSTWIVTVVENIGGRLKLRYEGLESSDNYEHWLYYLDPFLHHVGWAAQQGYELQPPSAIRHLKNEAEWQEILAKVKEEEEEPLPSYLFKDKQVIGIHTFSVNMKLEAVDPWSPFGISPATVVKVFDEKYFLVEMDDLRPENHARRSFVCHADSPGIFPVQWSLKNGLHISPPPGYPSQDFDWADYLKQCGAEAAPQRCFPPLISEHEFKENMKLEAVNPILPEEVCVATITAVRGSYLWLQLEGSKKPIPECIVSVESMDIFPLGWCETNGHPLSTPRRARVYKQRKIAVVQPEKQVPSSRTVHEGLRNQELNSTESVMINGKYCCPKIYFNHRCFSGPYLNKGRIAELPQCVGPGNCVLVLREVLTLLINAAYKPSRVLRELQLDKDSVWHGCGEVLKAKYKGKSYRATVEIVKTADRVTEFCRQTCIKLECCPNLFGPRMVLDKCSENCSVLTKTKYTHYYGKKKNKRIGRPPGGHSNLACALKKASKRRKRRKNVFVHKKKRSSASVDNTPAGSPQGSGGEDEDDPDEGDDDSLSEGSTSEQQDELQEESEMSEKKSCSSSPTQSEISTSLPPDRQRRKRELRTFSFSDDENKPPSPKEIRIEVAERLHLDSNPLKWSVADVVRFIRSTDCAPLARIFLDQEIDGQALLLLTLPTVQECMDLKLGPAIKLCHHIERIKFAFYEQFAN
UniProt Q9BYW2: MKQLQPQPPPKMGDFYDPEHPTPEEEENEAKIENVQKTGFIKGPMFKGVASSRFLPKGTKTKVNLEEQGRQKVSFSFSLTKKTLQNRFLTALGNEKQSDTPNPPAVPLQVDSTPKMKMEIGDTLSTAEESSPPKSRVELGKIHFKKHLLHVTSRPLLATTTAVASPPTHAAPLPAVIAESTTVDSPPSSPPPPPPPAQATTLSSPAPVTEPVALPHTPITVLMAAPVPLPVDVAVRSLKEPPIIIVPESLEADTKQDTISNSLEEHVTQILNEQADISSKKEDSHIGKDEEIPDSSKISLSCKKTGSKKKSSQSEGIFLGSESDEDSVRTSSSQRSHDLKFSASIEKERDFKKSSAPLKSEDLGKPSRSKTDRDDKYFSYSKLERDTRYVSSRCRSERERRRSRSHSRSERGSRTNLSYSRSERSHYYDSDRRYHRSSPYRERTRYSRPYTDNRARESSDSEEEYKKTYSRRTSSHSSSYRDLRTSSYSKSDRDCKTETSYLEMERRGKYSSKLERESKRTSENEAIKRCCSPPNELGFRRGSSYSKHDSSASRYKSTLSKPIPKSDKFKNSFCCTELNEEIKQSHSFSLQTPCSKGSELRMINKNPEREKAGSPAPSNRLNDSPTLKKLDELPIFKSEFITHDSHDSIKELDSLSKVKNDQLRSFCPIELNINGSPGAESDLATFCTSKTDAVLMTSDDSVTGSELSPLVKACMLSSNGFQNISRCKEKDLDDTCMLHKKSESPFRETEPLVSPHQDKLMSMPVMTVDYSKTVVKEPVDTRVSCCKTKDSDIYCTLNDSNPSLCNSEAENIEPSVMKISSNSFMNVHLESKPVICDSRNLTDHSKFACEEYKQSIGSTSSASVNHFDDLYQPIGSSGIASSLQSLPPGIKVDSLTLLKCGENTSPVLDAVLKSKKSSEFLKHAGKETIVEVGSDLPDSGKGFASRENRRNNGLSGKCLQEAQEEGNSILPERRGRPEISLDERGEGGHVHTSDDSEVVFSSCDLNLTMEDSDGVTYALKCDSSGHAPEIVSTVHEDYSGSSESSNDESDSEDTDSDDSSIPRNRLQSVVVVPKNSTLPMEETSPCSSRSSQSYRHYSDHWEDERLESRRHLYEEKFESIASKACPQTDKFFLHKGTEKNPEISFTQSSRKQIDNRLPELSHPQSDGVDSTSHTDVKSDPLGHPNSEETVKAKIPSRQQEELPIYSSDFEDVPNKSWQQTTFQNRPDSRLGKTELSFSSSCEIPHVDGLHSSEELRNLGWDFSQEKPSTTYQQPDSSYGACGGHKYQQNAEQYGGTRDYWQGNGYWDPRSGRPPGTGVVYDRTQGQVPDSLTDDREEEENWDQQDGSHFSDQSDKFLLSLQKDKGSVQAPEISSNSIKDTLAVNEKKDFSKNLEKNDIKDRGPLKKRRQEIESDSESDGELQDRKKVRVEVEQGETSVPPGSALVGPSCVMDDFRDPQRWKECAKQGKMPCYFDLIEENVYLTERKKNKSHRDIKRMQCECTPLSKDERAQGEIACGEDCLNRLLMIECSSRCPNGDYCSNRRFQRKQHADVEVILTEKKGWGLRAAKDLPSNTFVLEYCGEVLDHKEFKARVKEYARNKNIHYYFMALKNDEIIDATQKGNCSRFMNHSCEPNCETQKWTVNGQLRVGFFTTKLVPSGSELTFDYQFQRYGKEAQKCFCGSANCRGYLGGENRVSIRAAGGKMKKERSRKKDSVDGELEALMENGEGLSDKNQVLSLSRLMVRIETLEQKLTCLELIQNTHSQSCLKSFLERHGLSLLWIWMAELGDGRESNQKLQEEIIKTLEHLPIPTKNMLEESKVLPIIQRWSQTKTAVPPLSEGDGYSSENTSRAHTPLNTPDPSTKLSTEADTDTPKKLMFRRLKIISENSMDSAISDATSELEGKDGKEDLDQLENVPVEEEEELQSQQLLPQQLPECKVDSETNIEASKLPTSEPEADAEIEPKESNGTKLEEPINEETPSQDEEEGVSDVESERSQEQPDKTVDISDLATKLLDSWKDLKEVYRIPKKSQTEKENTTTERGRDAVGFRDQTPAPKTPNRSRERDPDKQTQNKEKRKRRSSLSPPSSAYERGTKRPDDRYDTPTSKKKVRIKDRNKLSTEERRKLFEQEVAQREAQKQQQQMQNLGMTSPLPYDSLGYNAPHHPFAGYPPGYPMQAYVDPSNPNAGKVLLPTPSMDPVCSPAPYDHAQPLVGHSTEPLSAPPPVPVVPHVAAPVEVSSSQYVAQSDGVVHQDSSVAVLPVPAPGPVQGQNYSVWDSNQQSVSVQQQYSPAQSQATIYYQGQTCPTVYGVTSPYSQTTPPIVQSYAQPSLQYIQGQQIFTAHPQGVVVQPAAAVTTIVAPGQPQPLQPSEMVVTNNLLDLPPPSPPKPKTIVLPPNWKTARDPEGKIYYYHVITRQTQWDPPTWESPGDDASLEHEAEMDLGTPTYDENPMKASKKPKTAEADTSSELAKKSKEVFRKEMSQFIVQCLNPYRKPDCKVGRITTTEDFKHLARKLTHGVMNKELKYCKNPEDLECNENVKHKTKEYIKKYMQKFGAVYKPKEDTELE
UniProt P50452: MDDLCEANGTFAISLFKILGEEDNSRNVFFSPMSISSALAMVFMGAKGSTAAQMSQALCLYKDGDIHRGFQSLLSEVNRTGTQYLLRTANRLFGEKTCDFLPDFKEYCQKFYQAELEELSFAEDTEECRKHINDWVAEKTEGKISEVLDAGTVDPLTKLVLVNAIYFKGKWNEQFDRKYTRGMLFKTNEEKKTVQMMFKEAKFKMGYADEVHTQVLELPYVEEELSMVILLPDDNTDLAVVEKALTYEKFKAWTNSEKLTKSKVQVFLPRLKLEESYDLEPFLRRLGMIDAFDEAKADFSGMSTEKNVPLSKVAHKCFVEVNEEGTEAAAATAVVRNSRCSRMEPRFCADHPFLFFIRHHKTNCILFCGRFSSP
UniProt P55011: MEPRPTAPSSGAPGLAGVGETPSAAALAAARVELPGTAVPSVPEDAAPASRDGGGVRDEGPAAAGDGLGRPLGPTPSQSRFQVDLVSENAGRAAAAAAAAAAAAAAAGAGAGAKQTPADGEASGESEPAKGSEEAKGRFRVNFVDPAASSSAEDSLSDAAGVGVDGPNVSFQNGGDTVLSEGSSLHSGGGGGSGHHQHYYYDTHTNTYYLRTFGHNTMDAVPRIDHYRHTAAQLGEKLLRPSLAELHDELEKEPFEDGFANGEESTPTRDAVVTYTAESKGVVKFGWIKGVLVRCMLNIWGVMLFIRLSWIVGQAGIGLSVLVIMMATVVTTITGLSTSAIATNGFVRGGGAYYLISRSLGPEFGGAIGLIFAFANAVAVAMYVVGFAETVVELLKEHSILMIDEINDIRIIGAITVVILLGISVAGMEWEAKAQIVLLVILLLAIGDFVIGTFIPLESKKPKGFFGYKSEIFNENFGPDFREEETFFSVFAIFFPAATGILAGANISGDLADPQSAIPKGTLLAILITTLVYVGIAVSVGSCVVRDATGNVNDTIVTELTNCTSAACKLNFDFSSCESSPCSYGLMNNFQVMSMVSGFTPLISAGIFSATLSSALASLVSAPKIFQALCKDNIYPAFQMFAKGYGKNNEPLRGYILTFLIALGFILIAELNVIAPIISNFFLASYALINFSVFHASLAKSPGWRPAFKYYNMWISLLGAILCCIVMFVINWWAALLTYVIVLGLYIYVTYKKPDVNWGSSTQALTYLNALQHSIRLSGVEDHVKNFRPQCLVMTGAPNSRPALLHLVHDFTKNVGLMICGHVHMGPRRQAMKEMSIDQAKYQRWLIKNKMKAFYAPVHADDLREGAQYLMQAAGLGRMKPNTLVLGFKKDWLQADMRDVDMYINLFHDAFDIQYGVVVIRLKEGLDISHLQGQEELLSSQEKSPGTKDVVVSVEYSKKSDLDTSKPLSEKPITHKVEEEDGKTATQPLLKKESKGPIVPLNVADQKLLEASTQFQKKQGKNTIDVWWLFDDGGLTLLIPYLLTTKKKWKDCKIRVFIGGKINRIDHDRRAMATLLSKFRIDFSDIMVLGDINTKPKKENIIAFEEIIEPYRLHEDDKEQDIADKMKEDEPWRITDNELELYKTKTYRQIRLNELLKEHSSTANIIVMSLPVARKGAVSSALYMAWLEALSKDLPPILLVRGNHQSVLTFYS
UniProt Q96HU1: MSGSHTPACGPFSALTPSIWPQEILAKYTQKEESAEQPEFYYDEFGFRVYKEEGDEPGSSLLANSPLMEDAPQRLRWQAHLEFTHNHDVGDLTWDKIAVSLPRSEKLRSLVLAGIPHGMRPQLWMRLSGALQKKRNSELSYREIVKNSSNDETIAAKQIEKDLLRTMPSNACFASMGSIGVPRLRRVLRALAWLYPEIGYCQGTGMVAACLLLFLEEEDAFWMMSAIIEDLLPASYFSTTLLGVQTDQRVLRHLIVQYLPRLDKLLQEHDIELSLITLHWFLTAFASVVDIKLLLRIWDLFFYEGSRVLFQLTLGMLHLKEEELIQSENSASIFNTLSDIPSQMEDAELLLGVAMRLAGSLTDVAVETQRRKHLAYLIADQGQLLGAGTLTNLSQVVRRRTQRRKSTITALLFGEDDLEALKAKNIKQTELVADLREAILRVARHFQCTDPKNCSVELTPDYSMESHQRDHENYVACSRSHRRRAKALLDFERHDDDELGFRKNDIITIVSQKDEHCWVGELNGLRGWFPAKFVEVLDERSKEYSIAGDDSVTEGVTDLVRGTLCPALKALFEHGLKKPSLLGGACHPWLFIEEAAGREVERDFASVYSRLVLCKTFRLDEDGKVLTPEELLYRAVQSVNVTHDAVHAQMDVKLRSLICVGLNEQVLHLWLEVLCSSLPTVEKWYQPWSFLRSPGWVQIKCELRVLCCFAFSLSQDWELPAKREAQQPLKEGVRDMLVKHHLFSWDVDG
UniProt Q9NP50: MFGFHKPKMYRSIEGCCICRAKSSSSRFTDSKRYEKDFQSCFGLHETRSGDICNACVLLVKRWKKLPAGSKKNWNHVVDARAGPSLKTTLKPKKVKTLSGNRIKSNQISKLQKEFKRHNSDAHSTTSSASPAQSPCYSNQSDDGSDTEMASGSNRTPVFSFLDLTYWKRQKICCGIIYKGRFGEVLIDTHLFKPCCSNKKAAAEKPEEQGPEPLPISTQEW

The other results are listed elsewhere or left out.

Compound in the assay: CC1Cc2ccccc2N1C(=O)C1CCCN(C1)C(=O)CCl (mixture of isomers) [TRIM25 ligand 11 (diastereomer mixture)]
Kind of assay: probe-labelled cysteine peptide fold change vs DMSO (competition) (log2 fold change); higher = less target engagement (more negative = stronger competition). The following applies: THP-1, incubation time: 4 h.
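Note: competitive chemoproteomic profiling in live THP-1 cells with an iodoacetamide desthiobiotin (IA-DTB) probe, comparing probe-labelled peptide intensities in compound-treated cells against DMSO-treated controls.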

Regarding “SKIV2L_Q15477_579_GRCDEQASGLTSLDLTTSSEK (UniProt Q15477)”, the “probe-labelled cysteine peptide fold change” value (10 µM) stood at 0.03 and the “probe-labelled cysteine peptide fold change” value (50 µM) is -0.0554.
On the same counts, the results for “SHCBP1_Q8NEM2_591_VDLEELIECATGK (UniProt Q8NEM2)” are 0.088 and -0.228.
On the same counts, the results for “SF3A3_Q12874_145_YLDLHDCYLK (UniProt Q12874)” are 0.0138 and 0.0212.
“SH3GLB2_Q9NR46_252_CLHEFVK (UniProt Q9NR46)”: the “probe-labelled cysteine peptide fold change” value is 0.0704 (10 µM) and 0.0561 (50 µM).
The corresponding values for “SETD7_Q8WTS6_303_ANHSFTPNCIYDMFVHPR (UniProt Q8WTS6)” are 0.0776 and 0.0787.
On the same counts, the results for “SFMBT1_Q9UHJ3_325_SFVCHADSPGIFPVQWSLK (UniProt Q9UHJ3)” are 0.0477 and 0.225.
The corresponding values for “SH2D4A_Q9H788_94_EVWVWVMGEHHLDKPYDVLCNEIIAER (UniProt Q9H788)” are -0.179 and -0.0992.
As for “SETD1B_Q9UPS6_1448_DFSFTPTFSEPSGPLLLPVCPLPTGR (UniProt Q9UPS6)”, the “probe-labelled cysteine peptide fold change” value is -0.127 (10 µM) and -0.387 (50 µM).
For the target “SETD2_Q9BYW2_1125_ACPQTDK (UniProt Q9BYW2)”, the “probe-labelled cysteine peptide fold change” value is, setting by setting: (10 µM) -0.00464; (50 µM) -0.00536.
On the same counts, the results for “SEPT3_Q9UH03_295_KTPWGIIEVENLNHCEFALLR (UniProt Q9UH03)” are -0.0858 and -0.28.
On to “SERPINB8_P50452_364+368_TNCILFCGR (UniProt P50452)”, for which the “probe-labelled cysteine peptide fold change” value was -0.0321 (10 µM) and 0.229 (50 µM).
The corresponding values for “SLC12A2_P55011_630_IFQALCK (UniProt P55011)” are 0.137 and 0.0624.
The corresponding values for “SHPK_Q9UHJ6_132_CSSEFLASLPQPK (UniProt Q9UHJ6)” are -0.114 and -0.0558.
Consider “SGSM3_Q96HU1_517_DEHCWVGELNGLR (UniProt Q96HU1)”, for which the “probe-labelled cysteine peptide fold change” value was 0.0468 (10 µM) and 0.194 (50 µM).
On the same counts, the results for “SERPINB8_P50452_128_FYQAELEELSFAEDTEECRK (UniProt P50452)” are -0.0048 and -0.0437.
“SETD2_Q9BYW2_1086_NSTLPMEETSPCSSR (UniProt Q9BYW2)”: the “probe-labelled cysteine peptide fold change” value was 0.377 (10 µM) and -0.415 (50 µM).
On the same counts, the results for “SINHCAF_Q9NP50_41_DFQSCFGLHETR (UniProt Q9NP50)” are 0.000469 and -0.0831.
